Among the data in article PMC9141838 are binding values, retold here.

Sequences of proteins named here, by UniProt entry; tags and fusion partners are left off.
UniProt Q9BUQ8: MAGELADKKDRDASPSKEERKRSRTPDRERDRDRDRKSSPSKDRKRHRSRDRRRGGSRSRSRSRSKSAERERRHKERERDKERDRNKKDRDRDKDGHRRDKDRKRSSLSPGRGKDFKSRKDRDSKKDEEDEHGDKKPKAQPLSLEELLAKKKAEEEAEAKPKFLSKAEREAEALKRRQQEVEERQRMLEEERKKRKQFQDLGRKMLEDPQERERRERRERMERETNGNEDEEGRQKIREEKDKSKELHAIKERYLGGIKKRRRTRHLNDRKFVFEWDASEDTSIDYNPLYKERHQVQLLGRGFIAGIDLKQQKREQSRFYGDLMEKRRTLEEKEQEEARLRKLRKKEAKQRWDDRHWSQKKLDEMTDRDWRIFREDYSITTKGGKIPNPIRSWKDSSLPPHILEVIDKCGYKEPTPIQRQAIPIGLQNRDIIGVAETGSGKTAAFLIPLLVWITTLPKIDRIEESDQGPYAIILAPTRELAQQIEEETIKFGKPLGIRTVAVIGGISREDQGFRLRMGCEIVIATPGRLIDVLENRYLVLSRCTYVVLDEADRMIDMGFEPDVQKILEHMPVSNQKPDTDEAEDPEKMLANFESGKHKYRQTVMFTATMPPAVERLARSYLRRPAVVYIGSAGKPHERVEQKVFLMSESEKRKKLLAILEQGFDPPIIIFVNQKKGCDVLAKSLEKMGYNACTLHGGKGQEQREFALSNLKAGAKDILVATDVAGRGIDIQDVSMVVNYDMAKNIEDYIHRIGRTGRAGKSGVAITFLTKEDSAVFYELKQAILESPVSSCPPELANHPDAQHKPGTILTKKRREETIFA

In assay [1] the target is T1, Flag-tagged USP39 (ubiquitin-specific protease 39) (human) (UniProt Q53GS9).
T1 sequence: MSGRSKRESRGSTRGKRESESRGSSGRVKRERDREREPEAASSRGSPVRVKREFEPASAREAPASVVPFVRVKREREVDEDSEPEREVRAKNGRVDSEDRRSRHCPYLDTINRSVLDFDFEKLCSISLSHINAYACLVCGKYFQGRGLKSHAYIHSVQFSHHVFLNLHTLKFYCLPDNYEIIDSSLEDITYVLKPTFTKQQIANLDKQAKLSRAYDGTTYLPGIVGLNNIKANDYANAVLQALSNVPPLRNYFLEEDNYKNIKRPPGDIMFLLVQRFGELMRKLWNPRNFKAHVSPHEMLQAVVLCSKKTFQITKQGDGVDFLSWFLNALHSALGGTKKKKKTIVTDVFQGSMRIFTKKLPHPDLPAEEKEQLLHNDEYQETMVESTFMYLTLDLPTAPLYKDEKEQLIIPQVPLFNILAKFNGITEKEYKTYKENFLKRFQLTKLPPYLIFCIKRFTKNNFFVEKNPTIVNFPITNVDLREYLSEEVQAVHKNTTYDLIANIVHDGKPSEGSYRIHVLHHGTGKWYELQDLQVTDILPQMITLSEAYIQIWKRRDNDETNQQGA

Assay [2] has as its target T1, Flag-tagged USP39 (ubiquitin-specific protease 39) (human). The source holds these as a separate data set.

Where two headings read alike, the source gives them in different places. Results are given in words; binding and its absence hold for the method and conditions named. In cells and extracts the contact can be indirect. Here binding means that the protein was enriched with, or labelled near, the bait; the list need not be complete. Where a sequence is shown, tags or fusion partners need not be part of it.

With DDX23 (from UniProt Q9BUQ8 1-820), the binding result in assay [1] is reported as “binds”.

B1: PRPF3 (protein, UniProt O43395 1-683)
chain: MALSKRELDELKPWIEKTVKRVLGFSEPTVVTAALNCVGKGMDKKKAADHLKPFLDDSTLRFVDKLFEAVEEGRSSRHSKSSSDRSRKRELKEVFGDDSEISKESSGVKKRRIPRFEEVEEEPEVIPGPPSESPGMLTKLQIKQMMEAATRQIEERKKQLSFISPPTPQPKTPSSSQPERLPIGNTIQPSQAATFMNDAIEKARKAAELQARIQAQLALKPGLIGNANMVGLANLHAMGIAPPKVELKDQTKPTPLILDEQGRTVDATGKEIELTHRMPTLKANIRAVKREQFKQQLKEKPSEDMESNTFFDPRVSIAPSQRQRRTFKFHDKGKFEKIAQRLRTKAQLEKLQAEISQAARKTGIHTSTRLALIAPKKELKEGDIPEIEWWDSYIIPNGFDLTEENPKREDYFGITNLVEHPAQLNPPVDNDTPVTLGVYLTKKEQKKLRRQTRREAQKELQEKVRLGLMPPPEPKVRISNLMRVLGTEAVQDPTKVEAHVRAQMAKRQKAHEEANAARKLTAEQRKVKKIKKLKEDISQGVHISVYRVRNLSNPAKKFKIEANAGQLYLTGVVVLHKDVNVVVVEGGPKAQKKFKRLMLHRIKWDEQTSNTKGDDDEESDEEAVKKTNKCVLVWEGTAKDRSFGEMKFKQCPTENMAREHFKKHGAEHYWDLALSESVLESTD
As for B1, in assay [2], the binding entry is on record as “binds”.

B2: PRP6 (protein, UniProt O94906 1-941)
chain: MNKKKKPFLGMPAPLGYVPGLGRGATGFTTRSDIGPARDANDPVDDRHAPPGKRTVGDQMKKNQAADDDDEDLNDTNYDEFNGYAGSLFSSGPYEKDDEEADAIYAALDKRMDERRKERREQREKEEIEKYRMERPKIQQQFSDLKRKLAEVTEEEWLSIPEVGDARNKRQRNPRYEKLTPVPDSFFAKHLQTGENHTSVDPRQTQFGGLNTPYPGGLNTPYPGGMTPGLMTPGTGELDMRKIGQARNTLMDMRLSQVSDSVSGQTVVDPKGYLTDLNSMIPTHGGDINDIKKARLLLKSVRETNPHHPPAWIASARLEEVTGKLQVARNLIMKGTEMCPKSEDVWLEAARLQPGDTAKAVVAQAVRHLPQSVRIYIRAAELETDIRAKKRVLRKALEHVPNSVRLWKAAVELEEPEDARIMLSRAVECCPTSVELWLALARLETYENARKVLNKARENIPTDRHIWITAAKLEEANGNTQMVEKIIDRAITSLRANGVEINREQWIQDAEECDRAGSVATCQAVMRAVIGIGIEEEDRKHTWMEDADSCVAHNALECARAIYAYALQVFPSKKSVWLRAAYFEKNHGTRESLEALLQRAVAHCPKAEVLWLMGAKSKWLAGDVPAARSILALAFQANPNSEEIWLAAVKLESENDEYERARRLLAKARSSAPTARVFMKSVKLEWVQDNIRAAQDLCEEALRHYEDFPKLWMMKGQIEEQKEMMEKAREAYNQGLKKCPHSTPLWLLLSRLEEKIGQLTRARAILEKSRLKNPKNPGLWLESVRLEYRAGLKNIANTLMAKALQECPNSGILWSEAIFLEARPQRRTKSVDALKKCEHDPHVLLAVAKLFWSQRKITKAREWFHRTVKIDSDLGDAWAFFYKFELQHGTEEQQEEVRKRCESAEPRHGELWCAVSKDIANWQKKIGDILRLVAGRIKNTF
As for B2, the binding result in assay [2] is given as “binds”.

B3: SART1 (protein, UniProt O43290 1-800)
chain: MGSSKKHRGEKEAAGTTAAAGTGGATEQPPRHREHKKHKHRSGGSGGSGGERRKRSRERGGERGSGRRGAEAEARSSTHGRERSQAEPSERRVKREKRDDGYEAAASSKTSSGDASSLSIEETNKLRAKLGLKPLEVNAIKKEAGTKEEPVTADVINPMALRQREELREKLAAAKEKRLLNQKLGKIKTLGEDDPWLDDTAAWIERSRQLQKEKDLAEKRAKLLEEMDQEFGVSTLVEEEFGQRRQDLYSARDLQGLTVEHAIDSFREGETMILTLKDKGVLQEEEDVLVNVNLVDKERAEKNVELRKKKPDYLPYAEDESVDDLAQQKPRSILSKYDEELEGERPHSFRLEQGGTADGLRERELEEIRAKLRLQAQSLSTVGPRLASEYLTPEEMVTFKKTKRRVKKIRKKEKEVVVRADDLLPLGDQTQDGDFGSRLRGRGRRRVSEVEEEKEPVPQPLPSDDTRVENMDISDEEEGGAPPPGSPQVLEEDEAELELQKQLEKGRRLRQLQQLQQLRDSGEKVVEIVKKLESRQRGWEEDEDPERKGAIVFNATSEFCRTLGEIPTYGLAGNREEQEELMDFERDEERSANGGSESDGEENIGWSTVNLDEEKQQQDFSASSTTILDEEPIVNRGLAAALLLCQNKGLLETTVQKVARVKAPNKSLPSAVYCIEDKMAIDDKYSRREEYRGFTQDFKEKDGYKPDVKIEYVDETGRKLTPKEAFRQLSHRFHGKGSGKMKTERRMKKLDEEALLKKMSSSDTPLGTVALLQEKQKAQKTPYIVLSGSGKSMNANTITK
In the case of B3, the binding entry in assay [1] was “binds”.
